Experimental data as given in patent publication US20080050759A1, “Screening Assay for Anti-Bacterial Compounds” (Bayer Healthcare AG, priority 2003, published 2008).
Like-named read-outs stand apart in the source and are kept apart here. At least one compound was matched to its structure with a doubt left.

Key:
[1] = tested on: S30 extracts from S. aureus 133; experiment: Gram-positive in vitro coupled transcription/translation (T/T) assay, S. aureus S30 extract; type: biochemical
Protocol: A procedure similar to the preparation of S30 extracts described by Murray et. al. (2) was used for S. aureus. Brain heart infusion (BHI) medium (6 l) was inoculated with 250 ml overnight culture of S. aureus 133 grown in BHI at 37° C. with agitation (170 rpm). Cells were cultured at 37° C. until an OD595nm of 2.5 was reached prior to centrifugation at 6000×g for 15 min at 4° C. Pellets were washed once with 500 ml cold S30-buffer A (10 mM Tris-acetate pH 8.0, 14 mM Mg-acetate, 1 mM DTT, 1 M KCl) and once with 250 ml of cold S30-buffer A containing 50 mM KCl. Pellets were frozen for 1 h at −20° C. or overnight at −70° C., thawed on ice and resuspended to a final volume of 99 ml buffer B (10 mM Tris-acetate pH 8.0, 20 mM Mg-acetate, 1 mM DTT, 50 mM KCl). A 1.5 ml aliquote of lysostaphin (0.8 mg/ml) in buffer B was added to each of three centrifuge tubes and 33 ml of the cell suspension were added. Samples were incubated at 37° C. for 1 h with gentle agitation prior to the addition of 150 μl 0.5 M DTT. Lysed cells were centrifuged for 30 min at 30,000×g at 4° C. and the resulting pellet was washed once with 33 ml S30-buffer B. The pooled supernatants were recentrifuged at 30,000×g for 30 min at 4° C. 100 ml of the supernatant were incubated with 25 ml preincubation buffer (670 mM Tris-acetate pH 8.0, 20 mM Mg-acetate, 7 mM Na3-PEP, 7 mM DTT, 5.5 mM ATP, 70 μM amino acids complete [Promega], 75 μg pyruvate kinase [Sigma]/ml) for 30 min at 37° C. to translate mRNAs. The preincubated supernatants were dialysed at 4° C. against 2 l of 10 mM Tris-acetate pH 8.0, 14 mM Mg-acetate, 1 mM DTT, 60 mM KCl with one buffer change using a Spectra-Por dialysis bag with a molecular weight cutoff of 3,500. The dialysate was gently concentrated by covering the dialysis bag with polyethylene glycol 8,000 powder (Sigma) at 4° C. to a protein concentration of ˜10 mg/ml. The resulting S30 extracts were flash frozen and stored in aliquots at −70° C.
(§1) The final assay volume was 59 μl. Inhibitor (3 μl dissolved in 10% DMSO), plasmid DNA (10 μl of optimal concentration in water pH 8.0) and 46 μl S30 extract [optimal concentration in 23 μl premixed with 23 μl incubation buffer (0.5 M potassium acetate, 87.5 mM Tris/acetate pH 8.0, 67.5 mM ammonium acetate, 50 μg/ml folinic acid, 5 mM DTT, 87.5 mg/ml polyethylene glycol 8000, 5 mM ATP; 1.25 mM of each CTP, GTP and UTP; 0.02 mM amino acids, 50 mM phosphoenolpyruvate trisodium salt, 2.5 mM cyclic AMP, 250 μg of each E. coli tRNA/ml) were added and incubated at 30° C. for 1 h. When using pT7-FF as a template 0.05 μl or 0.1 μl (50 U/μl) T7-RNA-Polymerase (Gibco BRL) were added to the S30 extracts used in the assay. Newly synthesized luciferase was detected by measuring bioluminescence for 60 s in a luininometer after the addition of 50 μl substrate buffer containing luciferine (20 mM Tricine/Cl pH 7.8, 2.67 mM MgSO4, 0.1 mM EDTA, 33.3 mM DTT, 0.27 mM Coenzyme A, 0.47 mM luciferine, 0.53 mM ATP).
MIC (minimal inhibitory concentration) values were determined as described in Example 4. Numbers in square brackets relate to the unit in square brackets as given in the column heading.

[2] = tested on: S30 extracts from S. pneumoniae 1707/4; experiment: Gram-positive in vitro coupled transcription/translation (T/T) assay, S. pneumoniae S30 extract; type: biochemical
Protocol: S. pneumoniae 1707/4 was grown overnight at 37° C. on agar plates containing 5% sheep blood under microaerophilic conditions. Cells were collected and inoculated into 4.8 l of BHI medium containing 5% bovine serum prior to cultivation at 37° C. under microaerophilic conditions for 5 h. S30 extracts were prepared as described for S. aureus 133 with some modifications. Cells were harvested and washed by centrifugation at 20,000×g for 15 min. The resulting cell pellet was resuspended in 20 ml buffer B, 3 mg lysozyme were added, incubated for 40 min at 37° C. prior to the addition of 75 μl 0.5 M DTT. The S30 sediment was washed with 8 ml buffer B and 7 ml preincubation buffer were added to the pooled supernatants.
as §1
(§2) The shape of the inhibition profiles is more or less similar for these compounds, in case of Streptomycin the lower IC50 value for S. aureus 133 compared to E. faecalis 27263 can be seen. templates pXyl-FF and pT7-FF with S30 extracts of the indicated bacterial strains. […] MIC (minimal inhibitory concentration) values were determined as described in Example 4. Numbers in square brackets relate to the unit in square brackets as given in the column heading.

[3] = tested on: S30 extracts from E. faecalis 27263; experiment: Gram-positive in vitro coupled transcription/translation (T/T) assay, E. faecalis S30 extract; type: biochemical
Protocol: E. faecalis 26273 was grown overnight in 250 ml BHI medium containing 2% bovine serum at 37° C. under microaerophilic conditions. The overnight culture was used to inoculate 4.8 1 BHI medium, cells were incubated at 37° C. under microaerophilic conditions with agitation (170 rpm) until an OD600 nm of ˜1.6 was reached. Preparation of S30 extracts was done as described for S. aureus with the following exceptions. Cells were harvested and washed at 7000×g at 4° C. for 12 min and resuspended in 100 ml S30-buffer B. For cell lysis 15 mg lysozyme resuspended in 1 ml S30-buffer B were added and incubated for 2 h at 37° C. with agitation. To complete cell lysis extracts were passed once through a French Press at 600 psi.
as §1, §2

[4] = tested on: S30 extracts derived from all three Gram-positives; experiment: In vitro coupled T/T assay, for all three Gram-positive S30 extracts; type: biochemical, S. aureus, S. pneumoniae, E. faecalis
[5] = template pT7-FF with T7 RNA polymerase, read-out: IC50
[6] = template pT7-FF, value in square brackets
[7] = template pXyl-FF, 50% inhibition of in vitro translation of luciferase, read-out: IC50
[8] = template pXyl-FF, value in square brackets
[9] = template pXyl-FF, read-out: IC50

Compound	IC50 [1, 5] [µM]	IC50 [1, 6] [µg/mL]	IC50 [1, 7] [µM]	IC50 [1, 8]	IC50 [2, 5] [µM]	IC50 [2, 6] [µg/mL]	IC50 [3, 5] [µM]	IC50 [3, 6] [µg/mL]	IC50 [3, 9] [µM]	IC50 [3, 8] [µg/mL]	inhibition in the in vitro coupled T/T assay ([4]; at high concentrations)	inhibition of luciferase production ([4]; pT7-FF as DNA template (bacteriophage T7 promoter))	IC50 values ([4]; transcription driven by bacterial xylA promoter (pXyl-FF))
COc1c(N2C[C@@H]3CCCN[C@@H]3C2)c(F)cc2c(=O)c(C(=O)O)cn(C3CC3)c12 [Moxifloxacin]	80	35	183	80 µg/mL	46	20	59	26	73	32	no or only weak inhibition	–	–
CO[C@H]1/C=C/O[C@@]2(C)Oc3c(C)c(O)c4c(O)c(c(/C=N/N5CCN(C)CC5)c(O)c4c3C2=O)NC(=O)/C(C)=C\C=C\[C@H](C)[C@H](O)[C@@H](C)[C@@H](O)[C@@H](C)[C@H](OC(C)=O)[C@@H]1C [Rifampicin]	> 60	> 50	0.02	0.02 [0.02] μg/ml	> 60	> 50	> 60	> 50	0.04	0.03	–	no inhibition	low IC50 values in the nM range
